In PubChem BioAssay AID1487 (National Center for Advancing Translational Sciences (NCATS), 2009):
The list shows a part of the results. Shown are side measurements of this screen, not its main read-out; they come without a call. Compounds called inactive in the main read-out are mostly missing here. Words in brackets tell the shape of the fitted curve; partial curves, single points and poor fits give uncertain potencies.

Test: qHTS Assay for Modulators of Lamin A Splicing
Settings: HeLa LMNA splicing GFP/RFP minigene ratio, 48 h
Outline: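 S3 HeLa stable clones carrying a lamin A-EGFP splicing minigene plus DsRed2 were seeded at 600 cells/well in Opti-MEM with 2% FBS, pin-dosed and incubated 48 h at 37°C. Acumen cytometry (488 nm) gave the GFP/RFP total-intensity ratio.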

[1] = measured here: GFP splicing reporter channel
[2] = measured here: RFP viability control channel

SMILES: C[C@]12C=CC(=O)C=C1CC[C@@H]1[C@@H]2CC[C@@]2(C)[C@H]1CC[C@]2(C)O
- AC50 [1]: 0.891 µM [falling, partial curve]
- AC50 [2]: 0.316 µM [rising, full curve, poor fit]

SMILES: c1ccc2c(c1)CN1CCCC1=N2
- AC50 [1]: 7.08 µM [rising, partial curve]
- AC50 [2]: 10 µM [rising, partial curve, poor fit]

SMILES: CCN(CC)C(=O)Oc1ccc2ccccc2c1Cl
- AC50 [1]: 20 µM [rising, single point]
- AC50 [2]: 12.6 µM [rising, single point]

SMILES: CC(=O)N1CCCSC1=Nc1ccccc1
- AC50 [2]: 11.2 µM [rising, partial curve, poor fit]

SMILES: Cc1cc(SCC(=O)N/N=C/c2ccco2)nc2ccccc12
- AC50 [1]: 12.6 µM [falling, partial curve, poor fit]
- AC50 [2]: 22.4 µM [falling, partial curve]

SMILES: NS(=O)(=O)c1ccc(N2CCNCC2)cc1
- AC50 [1]: 1.26 µM [rising, single point]
- AC50 [2]: 1.26 µM [rising, single point]

SMILES: O=C(N/N=C/c1c(O)n(CCC2=CCCCC2)c(=O)[nH]c1=O)c1ccccc1
- AC50 [2]: 20 µM [rising, single point]

SMILES: C=CCN1C[C@@H](C)N([C@H](c2ccc(C(=O)N(CC)CC)cc2)c2cccc(OC)c2)C[C@@H]1C
- AC50 [1]: 5.62 µM [falling, partial curve, poor fit]
- AC50 [2]: 6.31 µM [falling, single point]

SMILES: Cc1c(C(=O)N2CCC3(CC2)OCCO3)oc2ccc(S(=O)(=O)N3CCCCC3)cc12
- AC50 [1]: 0.0891 µM [rising, full curve]

SMILES: CCOC(=O)C1=CC(OC(CC)CC)C(NC(C)=O)C(N)C1 (stereo not given)
- AC50 [2]: 6.31 µM [falling, partial curve, poor fit]

SMILES: Nc1ccc2nonc2c1[N+](=O)[O-]
- AC50 [1]: 0.00794 µM [rising, full curve, poor fit]

SMILES: CCCCNCC(O)c1ccc(O)cc1 (stereo not given)
- AC50 [1]: 2.51 µM [falling, single point]
- AC50 [2]: 7.94 µM [rising, partial curve, poor fit]

SMILES: c1ccc2c(N3CCNCC3)cccc2c1
- AC50 [2]: 0.00562 µM [falling, full curve, poor fit]

SMILES: CCOC(=O)c1cn2nc(OP(=S)(OCC)OCC)cc2nc1C
- AC50 [1]: 20 µM [rising, single point]

SMILES: CN1CCN(CC(=O)Nc2ccc([N+](=O)[O-])cc2C(=O)c2ccccc2)CC1
- AC50 [1]: 0.158 µM [falling, single point]

SMILES: C[C@H]1CCCC(=O)CCC/C=C/c2cc(O)cc(O)c2C(=O)O1
- AC50 [1]: 15.8 µM [falling, single point]
- AC50 [2]: 17.8 µM [rising, single point]

SMILES: COc1ccccc1/C=N/N=C(/N)N[N+](=O)[O-]
- AC50 [2]: 11.2 µM [rising, single point]

SMILES: Cc1cccc(OCC(=O)N2CCN(Cc3cc(=O)n4nc(-c5ccccc5Cl)sc4n3)CC2)c1
- AC50 [1]: 0.316 µM [rising, full curve, poor fit]

SMILES: CCOCCCn1c(N)c(C(=O)Nc2sc3c(c2C(=O)OC)CCCC3)c2nc3ccccc3nc21
- AC50 [1]: 12.6 µM [falling, partial curve]
- AC50 [2]: 35.5 µM [falling, single point]

SMILES: CC(C)=CCCC1(C)C=Cc2c(O)c3c(c(CC=C(C)C)c2O1)OC12C(=CC4CC1C(C)(C)OC2(C/C=C(/C)C(=O)O)C4O)C3=O (stereo not given)
- AC50 [1]: 7.08 µM [falling, partial curve]
- AC50 [2]: 6.31 µM [falling, full curve]

SMILES: O=C1C(=O)c2ccccc2-c2ccccc21
- AC50 [1]: 2.82 µM [falling, full curve]
- AC50 [2]: 3.16 µM [falling, full curve]

SMILES: COC(=O)C(c1ccccc1)C1CCCCN1 (stereo not given)
- AC50 [1]: 0.000794 µM [falling, full curve, poor fit]

SMILES: CC(C)c1ccc(NC(=O)c2ccc(F)c(S(=O)(=O)N3CCc4ccccc4C3)c2)cc1
- AC50 [1]: 6.31 µM [falling, full curve, poor fit]
- AC50 [2]: 6.31 µM [falling, full curve, poor fit]

SMILES: CCN(CC)CCCN=Cc1c(O)n(Cc2ccc(F)cc2)c(=O)[nH]c1=O
- AC50 [2]: 0.0708 µM [falling, full curve, poor fit]

SMILES: COc1c(O)ccc2c1-c1c3c(cc4c1C(C2)N(C)CC4)OCO3 (stereo not given)
- AC50 [2]: 12.6 µM [rising, single point]

SMILES: CCOC(=O)C1(CCOc2ccccc2)CCN(C2Cc3ccccc3C2)CC1
- AC50 [1]: 5.01 µM [rising, single point]

SMILES: CC(C)NC[C@@H](O)COc1cccc2[nH]ccc12
- AC50 [2]: 0.000794 µM [falling, full curve, poor fit]

SMILES: OC1/C(=C/c2ccccc2C(F)(F)F)N2CCC1CC2 (stereo not given)
- AC50 [1]: 0.0562 µM [falling, partial curve, poor fit]

SMILES: O=c1c2ccccc2nc(-c2ccco2)n1-c1ccncc1
- AC50 [1]: 25.1 µM [rising, single point]

SMILES: CC(=O)NC(=O)NC(C)Cc1ccccc1 (stereo not given)
- AC50 [2]: 1 µM [falling, full curve, poor fit]

SMILES: CNCC[C@H](Oc1ccc(C(F)(F)F)cc1)c1ccccc1
- AC50 [1]: 12.6 µM [falling, partial curve]
- AC50 [2]: 0.00447 µM [falling, full curve, poor fit]

SMILES: Cn1c(CN2CCN(C(=O)COc3ccccc3)CC2)nc2cc([N+](=O)[O-])ccc21
- AC50 [2]: 25.1 µM [rising, single point]

SMILES: Cc1nn(Cc2ccccc2)c(C)c1C(=O)NCc1ccccc1
- AC50 [2]: 35.5 µM [falling, single point]

SMILES: Cc1ccc(CN2CC3CC(C2)c2cccc(=O)n2C3)cc1 (stereo not given)
- AC50 [2]: 14.1 µM [rising, partial curve]

SMILES: Cc1ccc2c(c1)C1CN(C)CCC1N2C(=O)c1ccccc1NS(=O)(=O)c1cccc(C(F)(F)F)c1 (stereo not given)
- AC50 [2]: 0.794 µM [rising, partial curve, poor fit]

SMILES: CN1C(=O)CN=C(c2ccccc2)c2cc([N+](=O)[O-])ccc21
- AC50 [1]: 11.2 µM [falling, single point]
- AC50 [2]: 11.2 µM [falling, partial curve, poor fit]
